In PMC3138737, “Interaction between the Triglyceride Lipase ATGL and the Arf1 Activator GBF1” (PLoS ONE, 2011):
These are yes or no findings as the source states them, for the method shown. For some assays here: Binding calls can cover weak binding; strength is not graded here. Where a sequence is shown, tags or fusion partners need not be part of it. For some assays here: In cells and extracts the contact can be indirect.

Protein sequences, listed by entry. Tags and fused reporters are not part of them. Lines headed by an entry give the natural chain unless they say otherwise; changes in a name come on top.
UniProt Q9Y6D5: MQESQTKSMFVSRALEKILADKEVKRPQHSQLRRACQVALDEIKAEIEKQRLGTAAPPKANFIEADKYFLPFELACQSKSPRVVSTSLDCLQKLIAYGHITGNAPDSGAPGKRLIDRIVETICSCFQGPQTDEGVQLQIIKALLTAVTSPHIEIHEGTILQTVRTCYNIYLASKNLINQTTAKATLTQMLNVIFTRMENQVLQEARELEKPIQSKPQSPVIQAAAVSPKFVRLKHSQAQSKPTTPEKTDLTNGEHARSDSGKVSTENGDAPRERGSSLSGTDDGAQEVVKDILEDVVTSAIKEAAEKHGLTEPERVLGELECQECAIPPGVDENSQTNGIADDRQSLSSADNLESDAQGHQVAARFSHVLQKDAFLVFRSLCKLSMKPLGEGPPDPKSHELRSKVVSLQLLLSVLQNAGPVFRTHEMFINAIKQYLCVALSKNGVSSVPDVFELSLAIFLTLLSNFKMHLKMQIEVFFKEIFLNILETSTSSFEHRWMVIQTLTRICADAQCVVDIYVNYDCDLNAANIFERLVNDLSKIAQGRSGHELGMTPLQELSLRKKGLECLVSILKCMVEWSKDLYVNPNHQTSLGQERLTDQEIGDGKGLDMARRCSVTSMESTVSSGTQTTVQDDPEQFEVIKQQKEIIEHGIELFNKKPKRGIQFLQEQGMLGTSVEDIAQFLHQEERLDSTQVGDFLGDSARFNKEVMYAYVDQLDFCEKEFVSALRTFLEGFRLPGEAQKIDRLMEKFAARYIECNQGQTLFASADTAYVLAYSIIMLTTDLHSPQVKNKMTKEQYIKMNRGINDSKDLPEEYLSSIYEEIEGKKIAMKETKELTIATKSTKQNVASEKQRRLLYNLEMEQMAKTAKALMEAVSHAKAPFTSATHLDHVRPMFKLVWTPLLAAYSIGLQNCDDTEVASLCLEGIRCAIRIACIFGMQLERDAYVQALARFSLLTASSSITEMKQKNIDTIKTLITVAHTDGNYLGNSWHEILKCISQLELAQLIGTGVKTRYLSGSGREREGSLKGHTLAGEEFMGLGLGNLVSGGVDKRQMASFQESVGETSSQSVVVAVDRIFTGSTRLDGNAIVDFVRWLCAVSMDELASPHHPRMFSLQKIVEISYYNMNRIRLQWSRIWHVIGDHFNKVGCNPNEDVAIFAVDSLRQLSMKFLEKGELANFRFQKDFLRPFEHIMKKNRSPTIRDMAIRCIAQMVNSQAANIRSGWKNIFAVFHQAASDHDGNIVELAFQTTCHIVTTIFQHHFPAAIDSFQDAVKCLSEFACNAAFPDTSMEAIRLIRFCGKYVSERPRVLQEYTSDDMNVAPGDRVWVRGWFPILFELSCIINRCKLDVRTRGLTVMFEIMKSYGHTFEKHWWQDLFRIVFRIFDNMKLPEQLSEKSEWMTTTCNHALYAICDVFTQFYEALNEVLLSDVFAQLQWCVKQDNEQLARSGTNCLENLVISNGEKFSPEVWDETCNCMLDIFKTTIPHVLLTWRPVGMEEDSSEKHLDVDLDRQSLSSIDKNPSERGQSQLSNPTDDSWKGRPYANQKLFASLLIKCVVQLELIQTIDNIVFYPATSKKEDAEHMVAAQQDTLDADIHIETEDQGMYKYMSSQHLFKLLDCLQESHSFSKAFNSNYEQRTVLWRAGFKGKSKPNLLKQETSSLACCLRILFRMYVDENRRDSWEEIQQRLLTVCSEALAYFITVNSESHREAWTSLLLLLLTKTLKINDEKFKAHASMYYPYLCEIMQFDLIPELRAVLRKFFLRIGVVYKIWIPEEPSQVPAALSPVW
UniProt Q99418: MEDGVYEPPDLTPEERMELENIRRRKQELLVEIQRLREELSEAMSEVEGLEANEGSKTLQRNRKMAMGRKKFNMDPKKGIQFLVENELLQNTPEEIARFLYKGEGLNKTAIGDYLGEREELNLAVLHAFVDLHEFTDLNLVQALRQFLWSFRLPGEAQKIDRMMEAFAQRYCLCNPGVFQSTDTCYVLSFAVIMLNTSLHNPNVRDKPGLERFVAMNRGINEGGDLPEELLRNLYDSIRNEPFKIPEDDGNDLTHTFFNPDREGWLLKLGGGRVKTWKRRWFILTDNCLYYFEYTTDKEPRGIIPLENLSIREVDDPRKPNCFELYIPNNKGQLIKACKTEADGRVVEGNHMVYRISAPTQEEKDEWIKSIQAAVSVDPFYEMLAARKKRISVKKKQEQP
UniProt Q9Y6D6: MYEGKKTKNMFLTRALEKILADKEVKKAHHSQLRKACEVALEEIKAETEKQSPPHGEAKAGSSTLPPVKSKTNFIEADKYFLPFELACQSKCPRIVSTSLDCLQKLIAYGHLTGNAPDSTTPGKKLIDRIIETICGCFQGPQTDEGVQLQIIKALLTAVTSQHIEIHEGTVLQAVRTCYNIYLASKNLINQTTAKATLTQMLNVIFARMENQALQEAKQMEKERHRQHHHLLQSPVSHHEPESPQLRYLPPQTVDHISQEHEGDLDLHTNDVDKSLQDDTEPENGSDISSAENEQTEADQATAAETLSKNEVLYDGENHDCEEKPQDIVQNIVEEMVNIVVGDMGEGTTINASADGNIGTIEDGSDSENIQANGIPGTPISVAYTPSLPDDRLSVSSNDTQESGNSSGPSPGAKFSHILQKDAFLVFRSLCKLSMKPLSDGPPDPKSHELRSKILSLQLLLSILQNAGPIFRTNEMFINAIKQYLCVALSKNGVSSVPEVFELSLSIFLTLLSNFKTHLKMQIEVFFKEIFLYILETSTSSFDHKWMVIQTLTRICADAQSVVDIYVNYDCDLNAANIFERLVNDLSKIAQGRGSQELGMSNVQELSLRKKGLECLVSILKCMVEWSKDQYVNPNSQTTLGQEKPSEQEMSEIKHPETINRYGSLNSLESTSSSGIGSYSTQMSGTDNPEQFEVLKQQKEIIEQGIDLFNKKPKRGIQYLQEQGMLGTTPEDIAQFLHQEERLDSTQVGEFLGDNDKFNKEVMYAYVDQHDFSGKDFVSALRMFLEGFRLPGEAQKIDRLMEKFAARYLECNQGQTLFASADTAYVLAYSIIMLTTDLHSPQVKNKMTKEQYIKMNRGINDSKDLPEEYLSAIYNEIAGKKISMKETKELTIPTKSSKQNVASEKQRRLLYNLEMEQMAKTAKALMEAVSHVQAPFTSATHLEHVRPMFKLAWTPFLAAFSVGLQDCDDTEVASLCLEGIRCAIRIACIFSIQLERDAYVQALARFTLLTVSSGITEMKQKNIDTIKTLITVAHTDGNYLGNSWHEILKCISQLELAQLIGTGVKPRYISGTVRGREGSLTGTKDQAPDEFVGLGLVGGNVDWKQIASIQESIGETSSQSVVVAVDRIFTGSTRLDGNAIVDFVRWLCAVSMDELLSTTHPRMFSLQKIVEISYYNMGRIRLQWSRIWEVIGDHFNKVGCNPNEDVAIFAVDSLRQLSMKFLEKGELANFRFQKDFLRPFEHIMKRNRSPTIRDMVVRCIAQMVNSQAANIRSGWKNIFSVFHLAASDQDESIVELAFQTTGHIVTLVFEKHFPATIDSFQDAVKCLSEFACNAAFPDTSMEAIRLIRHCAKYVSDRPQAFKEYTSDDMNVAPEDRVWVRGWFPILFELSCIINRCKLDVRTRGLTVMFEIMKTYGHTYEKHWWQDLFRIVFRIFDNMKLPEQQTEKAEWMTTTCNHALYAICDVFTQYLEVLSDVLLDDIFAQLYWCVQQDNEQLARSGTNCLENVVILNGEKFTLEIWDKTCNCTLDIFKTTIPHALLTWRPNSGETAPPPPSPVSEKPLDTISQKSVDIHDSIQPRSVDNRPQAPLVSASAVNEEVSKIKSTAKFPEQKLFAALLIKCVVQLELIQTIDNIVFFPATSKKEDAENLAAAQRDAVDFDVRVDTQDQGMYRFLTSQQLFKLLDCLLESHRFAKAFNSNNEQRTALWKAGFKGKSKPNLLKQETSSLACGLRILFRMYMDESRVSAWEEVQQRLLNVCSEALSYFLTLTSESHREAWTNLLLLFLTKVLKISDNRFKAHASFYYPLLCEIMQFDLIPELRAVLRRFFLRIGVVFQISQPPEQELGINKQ

Key:
[1] = target: BIG2 Sec7 domain fused to the DNA-binding domain of Gal4p (pGBKT7-Sec7-BIG2) (human) (UniProt Q9Y6D5); assay: two-hybrid; yeast AH109; ATGL(367–504) in pACT2 (Gal4 activation domain), Sec7 domains in pGBKT7 (Gal4 DNA-binding domain); screen of a human brain cDNA library with BIG2 Sec7 as bait and retest; selective plates, three days at 30°C
[2] = target: GBF1 Sec7 domain fused to the DNA-binding domain of Gal4p (pGBKT7-Sec7-GBF1) (human); assay: as above
[3] = target: EFA6 Sec7 domain fused to the DNA-binding domain of Gal4p (pGBKT7-Sec7-EFA6) (human); assay: as above
[4] = target: ARNO Sec7 domain fused to the DNA-binding domain of Gal4p (pGBKT7-Sec7-ARNO) (human) (UniProt Q99418); assay: as above
[5] = target: Venus-tagged GBF1 HUS domain (human); assay: co-IP; Cos7 cells co-transfected with HA-tagged ATGL constructs and Venus-tagged constructs; IP with anti-GFP, blot with anti-HA; lysis in 50 mM Tris-HCl pH 7.5, 100 mM NaCl, 1 mM EDTA, 0.5% NP40; 4°C
[6] = target: Venus-tagged BIG2 Sec7 domain, EK mutant (human) (UniProt Q9Y6D5); assay: as above
[7] = target: Venus-tagged GBF1 HDS2 domain (human); assay: as above
[8] = target: Venus-tagged BIG1 Sec7 domain, EK mutant (human) (UniProt Q9Y6D6); assay: as above
[9] = target: Venus-tagged EFA6 Sec7 domain, EK mutant (human); assay: as above
[10] = target: Venus-tagged ARNO Sec7 domain, EK mutant (human) (UniProt Q99418); assay: as above
[11] = target: Venus-tagged GBF1 HDS1 domain (human); assay: as above
Venus-ΔDCB-GBF1 (human) = assay: as above

Binder	binding [5]	binding [7]	binding [11]	further results
ATGL amino acids 367–504 fused to the activation domain of Gal4p (pACT2 library plasmid) (domain or fragment, UniProt Q96AD5 367-504) KEQTGSICQYLVMRAKRKLGRHLPSRLPEQVELRRVQSLPSVPLSCAAYREALPGWMRNNLSLGDALAKWEECQRQLLLGLFCTNVAFPPEALRMRAPADPAPAPADPASPQHQLAGPAPLLSTPAPEARPVIGALGL	–	–	–	binding [1]: binds; binding [2]: binds; binding [3]: no binding; binding [4]: binds
HA-tagged H. sapiens ATGL (full-length) (protein, UniProt Q96AD5 1-504) MFPREKTWNISFAGCGFLGVYYVGVASCLREHAPFLVANATHIYGASAGALTATALVTGVCLGEAGAKFIEVSKEARKRFLGPLHPSFNLVKIIRSFLLKVLPADSHEHASGRLGISLTRVSDGENVIISHFNSKDELIQANVCSGFIPVYCGLIPPSLQGVRYVDGGISDNLPLYELKNTITVSPFSGESDICPQDSSTNIHELRVTNTSIQFNLRNLYRLSKALFPPEPLVLREMCKQGYRDGLRFLQRNGLLNRPNPLLALPPARPHGPEDKDQAVESAQAEDYSQLPGEDHILEHLPARLNEALLEACVEPTDLLTTLSNMLPVRLATAMMVPYTLPLESALSFTIRLLEWLPDVPEDIRWMKEQTGSICQYLVMRAKRKLGRHLPSRLPEQVELRRVQSLPSVPLSCAAYREALPGWMRNNLSLGDALAKWEECQRQLLLGLFCTNVAFPPEALRMRAPADPAPAPADPASPQHQLAGPAPLLSTPAPEARPVIGALGL	binds	binds	–	binding [6]: binds; binding [8]: binds; binding [9]: no binding; binding [10]: binds
HA-tagged H. sapiens ATGL(1–366) (domain or fragment, UniProt Q96AD5 1-366) MFPREKTWNISFAGCGFLGVYYVGVASCLREHAPFLVANATHIYGASAGALTATALVTGVCLGEAGAKFIEVSKEARKRFLGPLHPSFNLVKIIRSFLLKVLPADSHEHASGRLGISLTRVSDGENVIISHFNSKDELIQANVCSGFIPVYCGLIPPSLQGVRYVDGGISDNLPLYELKNTITVSPFSGESDICPQDSSTNIHELRVTNTSIQFNLRNLYRLSKALFPPEPLVLREMCKQGYRDGLRFLQRNGLLNRPNPLLALPPARPHGPEDKDQAVESAQAEDYSQLPGEDHILEHLPARLNEALLEACVEPTDLLTTLSNMLPVRLATAMMVPYTLPLESALSFTIRLLEWLPDVPEDIRWM	binds	binds	binds	binding (Venus-ΔDCB-GBF1 (human)): binds
HA-tagged H. sapiens ATGL(1–289) (domain or fragment, UniProt Q96AD5 1-289) MFPREKTWNISFAGCGFLGVYYVGVASCLREHAPFLVANATHIYGASAGALTATALVTGVCLGEAGAKFIEVSKEARKRFLGPLHPSFNLVKIIRSFLLKVLPADSHEHASGRLGISLTRVSDGENVIISHFNSKDELIQANVCSGFIPVYCGLIPPSLQGVRYVDGGISDNLPLYELKNTITVSPFSGESDICPQDSSTNIHELRVTNTSIQFNLRNLYRLSKALFPPEPLVLREMCKQGYRDGLRFLQRNGLLNRPNPLLALPPARPHGPEDKDQAVESAQAEDYSQ	–	binds	binds	–
HA-tagged H. sapiens ATGL(1–178) (domain or fragment, UniProt Q96AD5 1-178) MFPREKTWNISFAGCGFLGVYYVGVASCLREHAPFLVANATHIYGASAGALTATALVTGVCLGEAGAKFIEVSKEARKRFLGPLHPSFNLVKIIRSFLLKVLPADSHEHASGRLGISLTRVSDGENVIISHFNSKDELIQANVCSGFIPVYCGLIPPSLQGVRYVDGGISDNLPLYEL	–	binds	binds	–
HA-tagged H. sapiens ATGL-S47A (protein, UniProt Q96AD5 1-504) MFPREKTWNISFAGCGFLGVYYVGVASCLREHAPFLVANATHIYGAAAGALTATALVTGVCLGEAGAKFIEVSKEARKRFLGPLHPSFNLVKIIRSFLLKVLPADSHEHASGRLGISLTRVSDGENVIISHFNSKDELIQANVCSGFIPVYCGLIPPSLQGVRYVDGGISDNLPLYELKNTITVSPFSGESDICPQDSSTNIHELRVTNTSIQFNLRNLYRLSKALFPPEPLVLREMCKQGYRDGLRFLQRNGLLNRPNPLLALPPARPHGPEDKDQAVESAQAEDYSQLPGEDHILEHLPARLNEALLEACVEPTDLLTTLSNMLPVRLATAMMVPYTLPLESALSFTIRLLEWLPDVPEDIRWMKEQTGSICQYLVMRAKRKLGRHLPSRLPEQVELRRVQSLPSVPLSCAAYREALPGWMRNNLSLGDALAKWEECQRQLLLGLFCTNVAFPPEALRMRAPADPAPAPADPASPQHQLAGPAPLLSTPAPEARPVIGALGL	–	binds	binds	–
